Not every detail of the peptide structures is certain; ends, links or a residue may be inferred. Marks after values point to notes of the source that are not given here. No end group written: not given here.
Tests used:
[1] = system: lysozyme; test: Lysozyme expression in rat small intestine after gavage (qRT-PCR); format: in vivo
[2] = system: MUC2; test: MUC2 expression in rat small intestine after gavage (qRT-PCR); format: in vivo; conditions: for MUC2 qRT-PCR Duodénum / MUC2 qRT-PCR Jéjunum / MUC2 qRT-PCR iléon: rat
[3] = system: MUC2; test: MUC2 expression in HT29-MTX cells (RT-PCR); format: cell-based, humaine; conditions: 10^-8, 10^-7 et 10^-6 M, 4 h, qRT-PCR
[4] = system: voie mu-opioidergique; test: Involvement of the mu-opioid pathway in the effect of the peptide
[5] = system: MUC4; test: MUC4 expression in HT29-MTX cells (RT-PCR); format: cell-based, humaine
[6] = system: cellules de Paneth; test: Crypts with Paneth cells in rat small intestine after gavage (lysozyme immunohistochemistry); format: in vivo; conditions: for faible concentration à laquelle le peptide est actif: in vivo
[7] = system: MUC5AC; test: MUC5AC expression in HT29-MTX cells (RT-PCR); format: cell-based, humaine
[8] = system: HT29-MTX; test: Mucin secretion by HT29-MTX cells (ELLA on culture supernatants); format: cell-based, humaine; conditions: 10^-4 M
[9] = system: cellules à mucus; test: Number of mucus cells in rat small intestine after gavage (MUC2 immunohistochemistry); format: in vivo; conditions: for nombre de cellules à mucus par axe crypto-villositaire, MUC2 Immunohistochimie, Duodénum / nombre de cellules à mucus par axe crypto-villositaire, MUC2 Immunohistochimie, Jéjunum / nombre de cellules à mucus par axe crypto-villositaire, MUC2 Immunohistochimie, iléon: rat
[10] = system: MUC4; test: MUC4 expression in rat small intestine after gavage (qRT-PCR); format: in vivo; conditions: for MUC4 qRT-PCR Duodénum / MUC4 qRT-PCR Jéjunum / MUC4 qRT-PCR iléon: rat
[11] = system: jéjunum de rat; conditions: cited from earlier work
[12] = system: MUC2; conditions: in vitro, lignée colique mucipare de rat (DHE); cited from earlier work
[13] = sonde gastrique J10-J18, 10^-4M
[14] = sonde gastrique J10-J18, 10^-7M
[15] = sonde gastrique J10-J18, 10^-8M
[16] = rat, sonde gastrique J10-J18, 10^-4M
[17] = rat, sonde gastrique J10-J18, 10^-7M
[18] = rat, sonde gastrique J10-J18, 10^-8M

GVSKVKEAMAPKQKEMPFPKYPVEPFTESQ [peptide [94-123]]
niveau des transcrits codant le lysozyme ([1]; gavage, qRT-PCR): augmente
Lysozyme qRT-PCR Duodénum [1, 13]: 128 (1,9)* % des CT
Lysozyme qRT-PCR Jéjunum [1, 13]: 140 (1,5) * % des CT
Lysozyme qRT-PCR iléon [1, 13]: 128 (1,5) % des CT
Lysozyme qRT-PCR Duodénum [1, 14]: 139 (1,8)* % des CT
Lysozyme qRT-PCR Jéjunum [1, 14]: 110 (2) % des CT
Lysozyme qRT-PCR iléon [1, 14]: 101 (1) % des CT
Lysozyme qRT-PCR Duodénum [1, 15]: 82 (1,2) % des CT
Lysozyme qRT-PCR Jéjunum [1, 15]: 118 (2) % des CT
Lysozyme qRT-PCR iléon [1, 15]: 113 (2) % des CT
expression de MUC2 dans le jéjunum de rat ([2]; gavage, concentrations 10^-7 et 10^-4 M, qRT-PCR): induit
MUC2 qRT-PCR Duodénum [2, 13]: 90 (1,0) % des CT
MUC2 qRT-PCR Jéjunum [2, 13]: 139 (1,8)* % des CT
MUC2 qRT-PCR iléon [2, 13]: 84(1) % des CT
MUC2 qRT-PCR Duodénum [2, 14]: 84 (1,3) % des CT
MUC2 qRT-PCR Jéjunum [2, 14]: 152 (1,1)* % des CT
MUC2 qRT-PCR iléon [2, 14]: 104 (1,1) % des CT
MUC2 qRT-PCR Duodénum [2, 15]: 83 (0,8) % des CT
MUC2 qRT-PCR Jéjunum [2, 15]: 102 (1,8) % des CT
MUC2 qRT-PCR iléon [2, 15]: 98 (1,35) % des CT
transcrits codant MUC2 [3]: augmentation significative
action par la voie mu-opioidergique [4]: n'agissait pas par la voie mu-opioidergique
expression de MUC4 ([5]; 10^-4 M, 4 h, quantitative RT-PCR (Lightcycler)): inhibé
expression de la mucine MUC4 ([5]; 10^-8 et 10^-7 M): forte augmentation
pourcentage de cryptes contenant des cellules de Paneth ([6]; duodénum, gavage, 10^-7, 10^-6 M et 10^-4 M, p<0.05): augmente fortement
faible concentration à laquelle le peptide est actif ([6]; duodénum, rat): 10^-7 M
concentration de la première réponse significative (cellules de Paneth et expression du lysozyme) ([6]; jéjunum et iléon, rat, gavage): 10^-8 M
faible concentration à laquelle le peptide est actif ([6]; jéjunum et iléon, rat): 10^-8 M
pourcentage de cryptes montrant des cellules de Paneth, Lysozyme Immunohistochimie, Duodénum [6, 16]: 37,26 (0,63) * %
pourcentage de cryptes montrant des cellules de Paneth, Lysozyme Immunohistochimie, Jéjunum [6, 16]: 66,9 (0,45) * %
pourcentage de cryptes montrant des cellules de Paneth, Lysozyme Immunohistochimie, iléon [6, 16]: 61,19 (1,23) * %
pourcentage de cryptes montrant des cellules de Paneth, Lysozyme Immunohistochimie, Duodénum [6, 17]: 34,53 (0,77) * %
pourcentage de cryptes montrant des cellules de Paneth, Lysozyme Immunohistochimie, Jéjunum [6, 17]: 51,92 (0,44) %
pourcentage de cryptes montrant des cellules de Paneth, Lysozyme Immunohistochimie, iléon [6, 17]: 49,8 (1,08) %
pourcentage de cryptes montrant des cellules de Paneth, Lysozyme Immunohistochimie, Duodénum [6, 18]: 28,51 (0,94) %
pourcentage de cryptes montrant des cellules de Paneth, Lysozyme Immunohistochimie, Jéjunum [6, 18]: 59,29 (0,76) * %
pourcentage de cryptes montrant des cellules de Paneth, Lysozyme Immunohistochimie, iléon [6, 18]: 59,38 (0,58) * %
expression de MUC5AC ([7]; 10^-8-10^-4M): sans effet
sécrétion de mucines [8]: inhibé
cellules caliciformes ([9]; immunohistochemistry, duodénum (10^-7M), jéjunum (10^-7 et 10^-4 M), iléon (10^-7 et 10^-4 M)): augmentation
nombre de cellules à mucus par axe crypto-villositaire, MUC2 Immunohistochimie, Duodénum [9, 13]: 6,61 (0,16)
nombre de cellules à mucus par axe crypto-villositaire, MUC2 Immunohistochimie, Jéjunum [9, 13]: 10,21 (0,21)*
nombre de cellules à mucus par axe crypto-villositaire, MUC2 Immunohistochimie, iléon [9, 13]: 10,54 (0,17)*
nombre de cellules à mucus par axe crypto-villositaire, MUC2 Immunohistochimie, Duodénum [9, 14]: 8,86 (0,17)*
nombre de cellules à mucus par axe crypto-villositaire, MUC2 Immunohistochimie, Jéjunum [9, 14]: 9,22 (0,24)*
nombre de cellules à mucus par axe crypto-villositaire, MUC2 Immunohistochimie, iléon [9, 14]: 9,79 (0,09)*
nombre de cellules à mucus par axe crypto-villositaire, MUC2 Immunohistochimie, Duodénum [9, 15]: 6,57 (0,23)
nombre de cellules à mucus par axe crypto-villositaire, MUC2 Immunohistochimie, Jéjunum [9, 15]: 7,96 (0,18)
nombre de cellules à mucus par axe crypto-villositaire, MUC2 Immunohistochimie, iléon [9, 15]: 7,61 (0,18)
expression de la mucine MUC4 le long du tractus gastro-intestinal ([10]; only at concentrations 10^-8 et 10^-4 M): augmentée
MUC4 qRT-PCR Duodénum [10, 13]: 106 (1,4) % des CT
MUC4 qRT-PCR Jéjunum [10, 13]: 161 (2,1)* % des CT
MUC4 qRT-PCR iléon [10, 13]: 113 (1,7) % des CT
MUC4 qRT-PCR Duodénum [10, 14]: 112 (1,5) % des CT
MUC4 qRT-PCR Jéjunum [10, 14]: 94 (1,2) % des CT
MUC4 qRT-PCR iléon [10, 14]: 84 (0,7) % des CT
MUC4 qRT-PCR Duodénum [10, 15]: 144 (1,3)* % des CT
MUC4 qRT-PCR Jéjunum [10, 15]: 160 (1,4)* % des CT
MUC4 qRT-PCR iléon [10, 15]: 157 (2,2) * % des CT

YPFPGPI [β-casomorphine-7, reference compound]
expression de MUC5AC ([7]; 10^-4 M): augmentant
sécrétagogue du mucus ex vivo [11]: puissant sécrétagogue
sécrétion de mucines [8]: augmentant
expression de la principale mucine sécrétée MUC2 [12]: augmentation

Source: patent EP2430044B1, “PEPTIDES INCREASING THE SECRETION AND/OR EXPRESSION OF AT LEAST ONE GAS[…] AND/OR INDUCING THE INCREASE OF MUCUS CELLS OR PANETH CELLS” (Institut National de la Recherche Agronomique (INRA), priority 2009, dated 2019)
